# The list is a part of this screen's results and no random one: it is rich in T/C values a quarter to a half above the control, in often repeated tests (any T/C) and in doses without a T/C. Other doses and runs of a compound stand elsewhere. T/C is the treated group as % of the vehicle group. Some entries give survivors of the animals treated and no T/C: the source files T/C as zero there, which appears to mark a toxic dose or a test without result, not a measured value. Some doses without a T/C left all or most animals alive at the check, yet need not have been tolerated: survival well below the control is almost never listed, so the zero probably covers shortened survival too. Counts of survivors are from the toxicity check (mostly the fifth day) where no day follows; animals may have died later. Schedules are NCI's codes, taken here to give the interval after Q, in days (D) or hours (H), and the number of doses after X. Some schedules carry Z or #; the key to these is not given. Where survival is the endpoint, this PubChem deposit counts one and a half times the control or more as active, and values a quarter to a half above the control carry no call in these data; other NCI protocols may use other cut-offs. Some entries were tested several times; the values are given in rising order. Some T/C values are followed by the survivors on the day toxicity was checked, most often the fifth; without a count, all were alive then.
# System: L1210 leukemia ip in BDF1 mice, survival T/C
# Experiment: NCI In Vivo Anticancer Drug Screen. Data for tumor model L1210 Leukemia (intraperitoneal) in B6D2F1 (BDF1) mice
# Conditions: T/C endpoint: mean survival time, higher T/C = longer survival
# [1] = dose: 200.0 mg/kg/injection, schedule: Q01DX001 (ip), vehicle: saline
# [2] = dose: 200.0 mg/kg/injection, schedule: Q01DX009 (ip), vehicle: saline
# [3] = dose: 400.0 mg/kg/injection, schedule: Q01DX001 (ip), vehicle: saline
# [4] = dose: 400.0 mg/kg/injection, schedule: Q01DX009 (ip), vehicle: saline
# [5] = dose: 40.0 mg/kg/injection, schedule: Q04DX003 (ip), vehicle: saline
# [6] = dose: 80.0 mg/kg/injection, schedule: Q04DX003 (ip), vehicle: saline
# [7] = dose: 100.0 mg/kg/injection, schedule: Q04DX003 (ip), vehicle: saline
# [8] = dose: 200.0 mg/kg/injection, schedule: Q04DX003 (ip), vehicle: saline
# [9] = dose: 400.0 mg/kg/injection, schedule: Q04DX003 (ip), vehicle: saline
# [10] = dose: 10.0 mg/kg/injection, schedule: Q01DX009 (ip), vehicle: saline
# [11] = dose: 100.0 mg/kg/injection, schedule: Q01DX001 (ip), vehicle: saline
# [12] = dose: 80.0 mg/kg/injection, schedule: Q01DX009 (ip), vehicle: saline
structure (smiles),measurement,setting,value
O=C(C[n+]1ccccc1)c1ccc(Br)cc1,survivor count,"dose: 25.0 mg/kg/injection, schedule: Q01DX009 (ip), vehicle: saline",3 of 6
same,survivor count,[1],0 of 6
same,survivor count,[2],0 of 6
same,survivor count,[3],1 of 6
same,survivor count,[4],0 of 6
O=C(O)c1ccc(CCl)cc1,survivor count,"dose: 400.0 mg/kg/injection, schedule: Q04DX002 (ip), vehicle: saline with Tween-80",2 of 6
OCCN1CCN(CC/C=C2/c3ccccc3Sc3ccc(C(F)(F)F)cc32)CC1,survivor count,"dose: 6.25 mg/kg/injection, schedule: Q03HX024 (ip), vehicle: saline",4 of 6
same,survivor count,"dose: 12.5 mg/kg/injection, schedule: Q03HX024 (ip), vehicle: saline",1 of 6
same,survivor count,"dose: 16.0 mg/kg/injection, schedule: Q01DX009 (ip), vehicle: saline",5 of 6
same,T/C,"dose: 20.0 mg/kg/injection, schedule: Q04DX003 (ip), vehicle: saline",126 % of control [5 of 6 alive]
same,T/C,"dose: 25.0 mg/kg/injection, schedule: Q04DX003 (ip), vehicle: saline",142 and 146 % of control
same,survivor count,"dose: 32.0 mg/kg/injection, schedule: Q01DX009 (ip), vehicle: saline",0 of 6
same,T/C,[5],146 % of control
same,survivor count,"dose: 50.0 mg/kg/injection, schedule: Q04DX003 (ip), vehicle: saline",3 of 4
same,survivor count,"dose: 75.0 mg/kg/injection, schedule: Q01DX001 (ip), vehicle: saline",2 of 6
same,survivor count,[6],4 of 6
same,survivor count,[7],1 of 4
same,survivor count,"dose: 150.0 mg/kg/injection, schedule: Q01DX001 (ip), vehicle: saline",1 of 6
same,survivor count,[8],0 of 4
same,survivor count,"dose: 300.0 mg/kg/injection, schedule: Q01DX001 (ip), vehicle: saline",0 of 6
same,survivor count,[9],0 of 4
C=C[P+](c1ccccc1)(c1ccccc1)c1ccccc1,survivor count,"dose: 4.6 mg/kg/injection, schedule: Q01DX009 (ip), vehicle: saline",0 of 6
same,survivor count,"dose: 6.25 mg/kg/injection, schedule: Q04DX003 (ip), vehicle: saline",6 of 6
same,survivor count,"dose: 7.0 mg/kg/injection, schedule: Q01DX009 (ip), vehicle: saline",0 of 6
same,survivor count,[10],0 of 6
same,T/C,"dose: 20.0 mg/kg/injection, schedule: Q01DX001 (ip), vehicle: saline",125 % of control
same,survivor count,[5],3 of 6
same,survivor count,"dose: 50.0 mg/kg/injection, schedule: Q01DX001 (ip), vehicle: saline",0 of 4
same,survivor count,"dose: 80.0 mg/kg/injection, schedule: Q01DX001 (ip), vehicle: saline",1 of 4
same,survivor count,[6],0 of 6
same,survivor count,[11],0 of 4
same,survivor count,[7],0 of 6
same,survivor count,[1],0 of 4
same,survivor count,[8],0 of 6
same,survivor count,[3],0 of 4
same,survivor count,[9],0 of 6
O=C(CCCN1CCC(O)(c2ccc(Cl)cc2)CC1)c1ccc(F)cc1,T/C,[10],134 % of control
same,T/C,"dose: 20.0 mg/kg/injection, schedule: Q01DX009 (ip), vehicle: saline",128 % of control
same,survivor count,[12],3 of 6
same,survivor count,"dose: 160.0 mg/kg/injection, schedule: Q01DX009 (ip), vehicle: saline",6 of 6
same,survivor count,"dose: 320.0 mg/kg/injection, schedule: Q04DX003 (ip), vehicle: Klucel (hydroxypropylcellulose) (HPC)",1 of 6
CCN(CC)CCCC(C)Nc1c2ccc(Cl)cc2nc2ccc(F)cc12 (configuration not stated),survivor count,"dose: 150.0 mg/kg/injection, schedule: Q01DX Z (ip), vehicle: saline",1 of 6
Cc1cc(N(CCCl)CCCl)ccc1C=Nc1ccccc1-n1ccnc1C,survivor count,"dose: 100.0 mg/kg/injection, schedule: Q04DX002 (ip), vehicle: Klucel (hydroxypropylcellulose) (HPC)",0 of 3
same,survivor count,"dose: 200.0 mg/kg/injection, schedule: Q04DX002 (ip), vehicle: Klucel (hydroxypropylcellulose) (HPC)",0 of 3
same,survivor count,"dose: 400.0 mg/kg/injection, schedule: Q04DX002 (ip), vehicle: Klucel (hydroxypropylcellulose) (HPC)",0 of 3
COC(=O)C(C)[P+](c1ccccc1)(c1ccccc1)c1ccccc1 (configuration not stated),T/C,"dose: 2.5 mg/kg/injection, schedule: Q01DX009 (ip), vehicle: saline",126 % of control
same,survivor count,"dose: 10.0 mg/kg/injection, schedule: Q01DX001 (ip), vehicle: saline",1 of 6
same,survivor count,"dose: 15.0 mg/kg/injection, schedule: Q01DX001 (ip), vehicle: saline",1 of 6
same,survivor count,"dose: 30.0 mg/kg/injection, schedule: Q01DX001 (ip), vehicle: saline",0 of 6
same,survivor count,"dose: 60.0 mg/kg/injection, schedule: Q01DX001 (ip), vehicle: saline",0 of 6
O=C(Nc1ccc2c(c1)OCO2)N1CC1,survivor count,"dose: 40.0 mg/kg/injection, schedule: Q01DX009 (ip), vehicle: Klucel (hydroxypropylcellulose) (HPC)",0 of 6
same,survivor count,"dose: 80.0 mg/kg/injection, schedule: Q04DX003 (ip), vehicle: Klucel (hydroxypropylcellulose) (HPC)",1 of 6
same,survivor count,"dose: 100.0 mg/kg/injection, schedule: Q04DX003 (ip), vehicle: Klucel (hydroxypropylcellulose) (HPC)",4 of 6
same,survivor count,"dose: 200.0 mg/kg/injection, schedule: Q04DX003 (ip), vehicle: Klucel (hydroxypropylcellulose) (HPC)",0 of 6
same,survivor count,"dose: 400.0 mg/kg/injection, schedule: Q04DX003 (ip), vehicle: Klucel (hydroxypropylcellulose) (HPC)",0 of 6
CCOC(=O)c1cnc(SC)nc1N1CC1,survivor count,"dose: 1.0 mg/kg/injection, schedule: Q01DX Z (ip), vehicle: methylcellulose (MC)",1 of 6
same,survivor count,"dose: 3.0 mg/kg/injection, schedule: Q01DX Z (ip), vehicle: methylcellulose (MC)",0 of 6
same,survivor count,"dose: 6.0 mg/kg/injection, schedule: Q01DX Z (ip), vehicle: methylcellulose (MC)",0 of 6
same,survivor count,"dose: 12.0 mg/kg/injection, schedule: Q01DX Z (ip), vehicle: methylcellulose (MC)",0 of 6
same,survivor count,"dose: 25.0 mg/kg/injection, schedule: Q01DX Z (ip), vehicle: methylcellulose (MC)",1 of 6
same,survivor count,"dose: 50.0 mg/kg/injection, schedule: Q01DX Z (ip), vehicle: methylcellulose (MC)",0 of 6
same,survivor count,"dose: 100.0 mg/kg/injection, schedule: Q01DX Z (ip), vehicle: methylcellulose (MC)",0 of 6
same,survivor count,"dose: 200.0 mg/kg/injection, schedule: Q01DX Z (ip), vehicle: methylcellulose (MC)",0 of 6
CN1CCC=C(C(=O)N2c3ccccc3CCc3ccccc32)C1,survivor count,[2],3 of 6
same,survivor count,[9],0 of 6
O=C1NC(=O)C2C3C=CC(C12)C1C2C(=O)NC(=O)C2C31 (configuration not stated),T/C,"dose: 200.0 mg/kg/injection, schedule: Q01DX009 (ip), vehicle: saline with Tween-80",138 % of control
Cc1cc(Cl)c2cc(Cl)cc(Cl)c2n1,survivor count,[4],5 of 6
Nc1nc2c(ncn2-c2ccc(OCCCc3ccccc3)cc2)c(=O)[nH]1,survivor count,"dose: 12.5 mg/kg/injection, schedule: Q01DX001 (ip), vehicle: saline with Tween-80",6 of 6
same,survivor count,"dose: 50.0 mg/kg/injection, schedule: Q01DX001 (ip), vehicle: saline with Tween-80",6 of 6
same,survivor count,"dose: 100.0 mg/kg/injection, schedule: Q01DX001 (ip), vehicle: saline with Tween-80",6 of 6
Cc1c(CC=C(c2ccccc2)c2ccccc2)cccc1C[N+](C)(C)C,survivor count,"dose: 50.0 mg/kg/injection, schedule: Q01DX001 (ip), vehicle: carboxymethylcellulose (CMC)",2 of 4
same,survivor count,"dose: 200.0 mg/kg/injection, schedule: Q01DX001 (ip), vehicle: carboxymethylcellulose (CMC)",1 of 4
same,survivor count,"dose: 400.0 mg/kg/injection, schedule: Q01DX001 (ip), vehicle: carboxymethylcellulose (CMC)",0 of 4
COc1ccccc1C[N+](C)(C)C,survivor count,[12],3 of 6
same,survivor count,[11],1 of 6
same,survivor count,[1],0 of 6
same,survivor count,[3],0 of 6

# From PubChem BioAssay AID248 (DTP/NCI, 2004)
